Test results published in PMC11360871.
These are yes or no findings as the source states them, for the method shown. In cells and extracts the contact can be indirect. Some binding calls cover weakened binding; strength is not graded here.

Chains of the proteins cited; added tags and fusions are not shown.
UniProt Q04207: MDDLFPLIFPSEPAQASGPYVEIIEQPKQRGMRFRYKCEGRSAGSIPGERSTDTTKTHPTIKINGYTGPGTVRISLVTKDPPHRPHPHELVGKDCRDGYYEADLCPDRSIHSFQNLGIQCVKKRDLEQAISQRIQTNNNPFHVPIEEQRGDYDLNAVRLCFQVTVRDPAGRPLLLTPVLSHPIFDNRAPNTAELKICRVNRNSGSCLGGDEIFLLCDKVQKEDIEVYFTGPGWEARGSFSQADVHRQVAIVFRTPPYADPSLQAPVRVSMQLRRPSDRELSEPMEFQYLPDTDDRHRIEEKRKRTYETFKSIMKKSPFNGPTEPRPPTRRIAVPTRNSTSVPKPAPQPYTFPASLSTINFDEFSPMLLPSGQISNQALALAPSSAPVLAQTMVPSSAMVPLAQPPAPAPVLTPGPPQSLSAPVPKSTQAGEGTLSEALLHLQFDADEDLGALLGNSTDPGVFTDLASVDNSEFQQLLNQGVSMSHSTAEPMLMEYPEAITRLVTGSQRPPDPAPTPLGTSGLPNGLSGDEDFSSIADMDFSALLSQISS

Experiments:
[1] = target: T1, Nuclear factor (erythroid-derived 2)-like 1 (Nrf1) (mouse (endogenous in mouse brain tissue and mouse primary microglia)) (UniProt Q9WU00); test: co-IP; anti-Nrf1 antibody (Abcam) on protein A + G magnetic beads, IgG as negative control, overnight at 4 °C, western blot; cell nuclei of mouse primary microglia after OGD/R, treated with vehicle, PTS or ITSA1 + PTS for 24 h
T1 sequence: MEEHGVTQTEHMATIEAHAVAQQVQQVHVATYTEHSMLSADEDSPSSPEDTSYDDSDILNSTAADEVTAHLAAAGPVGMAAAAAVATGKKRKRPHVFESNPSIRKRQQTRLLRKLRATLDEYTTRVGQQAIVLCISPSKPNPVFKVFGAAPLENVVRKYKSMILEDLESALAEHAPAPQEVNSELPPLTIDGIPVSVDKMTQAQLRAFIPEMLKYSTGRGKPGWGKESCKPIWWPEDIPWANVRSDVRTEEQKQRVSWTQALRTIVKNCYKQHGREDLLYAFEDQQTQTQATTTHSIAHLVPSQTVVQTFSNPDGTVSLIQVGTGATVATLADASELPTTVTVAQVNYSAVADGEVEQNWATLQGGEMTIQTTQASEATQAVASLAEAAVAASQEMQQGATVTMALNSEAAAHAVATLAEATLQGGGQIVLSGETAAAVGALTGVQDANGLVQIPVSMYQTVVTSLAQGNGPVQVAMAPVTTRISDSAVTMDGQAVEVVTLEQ

[2] = target: T1, Nuclear factor (erythroid-derived 2)-like 1 (Nrf1) (mouse (endogenous in mouse brain tissue and mouse primary microglia)); test: co-IP; anti-Nrf1 antibody (Abcam) on protein A + G magnetic beads, IgG as negative control, overnight at 4 °C, western blot; cell nucleus of ischaemic brain tissue of mice 24 h after MCAO/R; mice treated with vehicle, PTS, ITSA1, RGFP966 or PTS + ITSA1

binding [1]: binds
binding [2]: binds
Substance: NF-κB p65 (from UniProt Q04207 1-549)
